Data set [1] has as its system mammary tumor. As to the kind of experiment: Scintigraphic imaging in mammary (breast) tumor-bearing rats. The note with it: iv. The format is in vivo.
For data set [2], the system named is 13762 tumor cell line mammary tumor. The data set is described as follows: Gamma scintigraphic imaging in Fischer 344 rats with 13762 mammary tumor. It is filed as in vivo. The note with it: 0.5, 2 and 4 hours after i.v. injection of 300 μCi. On the procedure: Female Fischer 344 rats (250-275 g each) (Harlan, Inc., Indianapolis, Ind.) were inoculated with mammary tumor cells by one author from the 13762 tumor cell line (s.c. 10^6 cells/rat, a tumor cell line specific to Fischer rats). After 8-10 days, tumor volumes of 0.3-0.6 cm were measured. Scintigraphic images were obtained 0.5, 2 and 4 hours after i.v. injection of 300 μCi of ^99mTc-EC or ^99mTc-EC-DG (n=3/agent, total 6 rats). ROI between tumor tissue and muscle (at symmetric site) was used to determine tumor/non-tumor ratios. The smallest tumor volume that could be detected by ^99mTc-EC-DG was 3 mm.

The mark [3] stands for this setting: 0.5-4 hrs (EC-TML 0.1-4 hrs), 0.1 mCi/rat.

Each structure is given as a SMILES string.

Turning to `Cc1ccc(-c2cc(C(F)(F)F)nn2-c2ccc(S(=O)(=O)NC(=O)NCC(=O)NCCNC(=O)C3C[S][99Tc]45(=[O])[S]CC(C(=O)O)[N]4CC[N]35)cc2)cc1` (stereo not shown) [^99mTc-EC-COX-2], the “Planar images: tumor visualization” value in data set [1] (0.5-4 hrs, 0.3 mCi/rat) is on record as “tumors could be visualized clearly”.
For `O=C(NC1C(O)OC(CO)C(O)C1O)C1C[S][99Tc]23(=[O])[S]CC(C(=O)NC4C(O)OC(CO)C(O)C4O)[N]2CC[N]13` (stereo not shown) [^99mTc-EC-DG], the “smallest tumor volume that could be detected” value in data set [2] is 3 mm.
`C[N+](C)(C)CCCCC(NC(=O)C1C[S][99Tc]23(=[O])[S]CC(C(=O)NC(CCCC[N+](C)(C)C)C(=O)[O-])[N]2CC[N]13)C(=O)[O-]` (stereo not shown) [^99mTc-EC-carnitine]: the “Planar images: tumor visualization” value in data set [1] (setting [3]) is listed as “tumors could be visualized”.
Still for that read-out and setting: with `Nc1nc2c(ncn2CCC(CO)CNC(=O)C2C[S][99Tc]34(=[O])[S]CC(C(=O)NCC(CO)CCn5cnc6c(=O)[nH]c(N)nc65)[N]3CC[N]24)c(=O)[nH]1` (stereo not shown) [^99mTc-EC-penciclovir] the entry was “tumors could be visualized”.

These data come from patent US20040166058A1, “Ethylenedicysteine (EC)-drug conjugates, compositions and methods for tissue specific disease imaging” (Board of Regents, The University of Texas System, priority 2002, published 2004).
